Measured values taken from PubChem BioAssay AID743255 (National Center for Advancing Translational Sciences (NCATS), 2014).
The whole screen tested about 390,000 compounds, of which about 910 (0.23%) were called active. Inconclusive means that the source gave no clear call. Such entries were picked first, then a sample of the others. The call rests on the fitted dose curve; in most records, active means well fitted inhibition curve with a large enough effect; inconclusive means small, poorly fitted or top-dose-only effect; inactive means no such curve, though single readings can be large or run the other way. A potency beside an inconclusive call is a rough fit, not a confirmed value.

By UniProt entry, the sequences of proteins in these tests, tags left out. Where a name states a change or a piece, a line headed by the entry shows the natural chain unless it says otherwise.
UniProt O94782: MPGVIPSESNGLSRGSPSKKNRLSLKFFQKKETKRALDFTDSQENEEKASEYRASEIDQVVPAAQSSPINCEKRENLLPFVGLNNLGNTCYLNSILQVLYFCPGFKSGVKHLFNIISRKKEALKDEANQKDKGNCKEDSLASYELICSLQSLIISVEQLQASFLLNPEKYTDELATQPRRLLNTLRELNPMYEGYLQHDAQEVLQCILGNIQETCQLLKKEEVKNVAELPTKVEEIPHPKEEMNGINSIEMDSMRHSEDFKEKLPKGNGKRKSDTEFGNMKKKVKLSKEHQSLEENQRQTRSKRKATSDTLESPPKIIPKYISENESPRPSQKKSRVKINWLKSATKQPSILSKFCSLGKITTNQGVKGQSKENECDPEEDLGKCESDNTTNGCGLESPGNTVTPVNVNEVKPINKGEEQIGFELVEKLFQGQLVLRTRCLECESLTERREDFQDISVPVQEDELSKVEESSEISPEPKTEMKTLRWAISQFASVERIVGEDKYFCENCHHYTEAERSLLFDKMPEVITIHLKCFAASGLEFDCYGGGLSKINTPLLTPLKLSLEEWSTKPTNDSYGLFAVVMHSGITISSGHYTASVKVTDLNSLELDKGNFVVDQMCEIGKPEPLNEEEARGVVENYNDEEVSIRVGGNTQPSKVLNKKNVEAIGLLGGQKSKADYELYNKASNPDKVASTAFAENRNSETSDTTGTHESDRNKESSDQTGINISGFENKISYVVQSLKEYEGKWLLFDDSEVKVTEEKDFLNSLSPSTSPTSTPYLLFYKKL

target: Ubiquitin carboxyl-terminal hydrolase 1 (Homo sapiens) (UniProt O94782); experiment: Inhibitors of USP1/UAF1: Primary Screen; conditions: recombinant USP1/UAF1, Ub-Rhodamine cleavage fluorescence; activity change, negative = inhibition: at 57.1 µM (top of the series); further: nearly all actives have a fitted effect of over 60% in size
Summary of the method: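 In this screen, compounds sit with the deubiquitinase complex (1nM) for 15 min at room temperature before Ub-Rho is added at 150nM final. Fluorescence rise is then followed for 6 reads every 60 seconds.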
On the % scale 0 is the no-effect control and ±100 the full control effect; potency means the concentration at half of the fitted maximal effect.

Activity change, negative = inhibition, inconclusive:
CCN(Cc1ccccc1)S(=O)(=O)c1ccc(S(=O)(=O)N(Cc2ccccn2)Cc2ccco2)cc1 -13.4% [inhibitor]
CCc1ccc(-n2nnc(-c3nc(-c4cccs4)no3)c2N)cc1 -5.61% [inhibitor]

Potency, inconclusive:
CCc1ccc(CN2C(=O)c3ccccc3C2C(=O)NCC2CCCO2)cc1 (centres undefined) 0.282 µM [inhibitor, partial curve, poor fit]
C#CCOCCOCCOCCNc1nc(N2CCN(C(=O)CCCCCCCCCCNC(=O)[C@@H](CCSC)n3cc(CCO)nn3)CC2)nc(N2CCN(C(=O)CCCCCCCCCCNC(=O)[C@H]([C@@H](C)CC)n3cc(CCCCN=C(N)N)nn3)CC2)n1 50.1 µM [inhibitor, partial curve, poor fit]
CC(=O)c1cccc(NC(=O)c2cccc(N3C(=O)c4ccccc4C3=O)c2)c1 44.7 µM [inhibitor, partial curve, poor fit]
Cc1ccc(Nc2c(-c3c[nH]c4ccccc34)nc3ccccn23)cc1 3.98 µM [inhibitor, full curve, poor fit]
COc1cc(CCCN2CCNC[C@@H]2Cc2ccccc2)cc(OC)c1OC 3.16 µM [inhibitor, full curve, poor fit]
CC[C@H](C)[C@@H](CNC)NC[C@@H](Cc1ccc(O)cc1)NCC(C)(C)C 0.251 µM [inhibitor, full curve, poor fit]
Fc1ccc(C(c2nnc(-c3ccccc3)o2)N2CCN(c3cccc(Cl)c3)CC2)cc1 (centres undefined) 15.8 µM [inhibitor, partial curve, poor fit]
CCCCn1cnc2c(SCc3ccccc3Cl)nc(N)nc21 0.251 µM [inhibitor, full curve, poor fit]
COc1ccc2c(c1)c1c(c(=O)n(-c3ccccc3C)c(=O)n1Cc1cccc(C(F)(F)F)c1)n2C 8.91 µM [inhibitor, partial curve, poor fit]
CCCCc1cc2c(s1)CCCC/C2=N/O 39.8 µM [inhibitor, partial curve]
Cn1c(N)c(C(=O)COC(=O)COc2ccc3ccccc3c2)c(=O)n(C)c1=O 44.7 µM [inhibitor, partial curve, poor fit]
Cc1cccc(OCC(=O)Nc2ccccc2C(=O)OCc2cc(=O)n3ccsc3n2)c1 3.98 µM [inhibitor, partial curve]
O=C(COC(=O)/C=C/c1ccc(Br)o1)NCCCN1CCCC1=O 0.251 µM [inhibitor, full curve, poor fit]
NC(=O)[C@@H]1CCCCNc2c(F)cc([N+](=O)[O-])cc2C(=O)N[C@@H](CC(=O)O)C(=O)N[C@@H](CCC(=O)O)C(=O)N1 44.7 µM [inhibitor, partial curve, poor fit]
Cc1ccc(CNC(=O)C23CN(Cc4ccccc4)CC2C(c2ccc([N+](=O)[O-])cc2)=NO3)o1 (centres undefined) 7.08 µM [inhibitor, single point]
CCN(CC)C(=O)C1=C(C)N(Cc2ccc(F)cc2)C(=O)C(CC(=O)NCCCCc2ccccc2)C1 (centres undefined) 0.282 µM [inhibitor, full curve, poor fit]
Cc1cc(/C=C2\NC(=S)N(C)C2=O)ccc1N1CCCC1 2.24 µM [inhibitor, partial curve, poor fit]
CC(C)(C)C(=O)Nc1ccc(-c2nc3ccc(NC(=O)C(C)(C)C)cc3[nH]2)cc1 0.501 µM [inhibitor, full curve, poor fit]
CCOC(=O)N1CCN(C2=Nc3cccc4cccc2c34)CC1 0.447 µM [inhibitor, full curve, poor fit]
O=C(O)c1cc(-c2ccc(/C=N/Nc3ccc([N+](=O)[O-])cn3)o2)ccc1Cl 5.01 µM [inhibitor, full curve]
CCOC(=O)Cn1nnnc1CN(Cc1ccc(OC)cc1)Cc1cc2cc(CC)ccc2[nH]c1=O 25.1 µM [inhibitor, single point]
NC(=O)c1cc(C(=O)c2ccc(Cl)cc2)c[nH]1 4.47 µM [inhibitor, single point]
COC(=O)c1ccc(C(=O)N=c2sccn2C)cc1 4.47 µM [inhibitor, partial curve]
C[C@@H]1CN([C@@H](C)CO)C(=O)c2cccc(NC(=O)c3nc4ccccc4s3)c2O[C@@H]1CN(C)CC1CC1 56.2 µM [inhibitor, partial curve, poor fit]
C=CCNc1nc2c3ccccc3n(C(C)=O)c2s1 31.6 µM [inhibitor, partial curve]

Some of these compounds in order of number of heavy atoms, high to low.
Potency, inconclusive:
CCN(CC)C(=O)C1=C(C)N(Cc2ccc(F)cc2)C(=O)C(CC(=O)NCCCCc2ccccc2)C1 (centres undefined) 0.282 µM [inhibitor, full curve, poor fit]
O=C(O)c1cc(-c2ccc(/C=N/Nc3ccc([N+](=O)[O-])cn3)o2)ccc1Cl 5.01 µM [inhibitor, full curve]
COC(=O)c1ccc(C(=O)N=c2sccn2C)cc1 4.47 µM [inhibitor, partial curve]

Following part:

Potency, inactive:
CCOc1ccc(S(=O)(=O)N(CC)CC)cc1NS(=O)(=O)c1ccc(F)c(F)c1F
Cc1ccc(-n2c(=O)c3sc4ccccc4c3n(CC(=O)NC3CCCC3)c2=O)cc1C
Cc1cccc(OCCC(=O)NCC(=O)Nc2cccc(C)c2C)c1
C/C(N)=C(/C#N)C(=O)CSc1ncnc2ccccc12
Cc1c(Cl)cccc1-c1ccc(CNCCSc2nnnn2-c2ccccc2)o1
CC(C)CN(C(=O)Cn1c(C(F)(F)F)nc2ccccc21)c1c(N)n(Cc2ccccc2)c(=O)[nH]c1=O
CC1CCc2c(C(=O)Nc3ccccn3)csc2C1 (centres undefined)
CCc1ccc(-c2cc(C(=O)O)c3ccccc3n2)s1
CCOc1cccc(C(=O)NC(=S)Nc2ccc(Cl)cc2C(=O)O)c1
Cc1cccc(N2CCN(C(=O)CCSCc3ccccc3F)CC2)c1C
CCCc1cnc2c(c1SCc1ccc(C(F)(F)F)cc1)c(=O)n(C)c(=O)n2C
CCOC(=O)c1cnc2ccc(OCC)cc2c1N1CCN(c2ccccc2OC)CC1
